Laboratory results: paper PMC4778132, “CC chemokine receptor 10 cell surface presentation in melanocytes is regulated by the novel interaction partner S100A10” (Scientific Reports, 2016)
These are yes or no findings as the source states them, for the method shown. A result given as binding can be weak or reduced; the word gives no strength. Tags and fused reporters may be left off the sequences shown.

Columns and labels:
[1] = target: T1, GST-CCR10 CT (C-terminal cytoplasmic tail of human CCR10 fused to GST) (human) (UniProt P46092); experiment: pull-down; GST fusion proteins (50 μg) on glutathione sepharose beads incubated with purified protein (10 μg), 2 hours at 4 °C, IP buffer (20 mM Tris-HCl pH 7.5, 25 mM NaCl, 10 mM NaF, 1 mM EDTA, 0.1% Triton-X 100); immunoblot; both purified
T1 sequence: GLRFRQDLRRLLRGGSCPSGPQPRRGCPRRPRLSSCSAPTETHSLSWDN

[2] = target: T1, GST-CCR10 CT (C-terminal cytoplasmic tail of human CCR10 fused to GST) (human); experiment: SPR; Biacore 3000; GST-CCR10 CT amine-coupled on a CM5 chip; six concentrations of HIS-tagged S100A10 derivative injected; HBS-P buffer (10 mM Hepes pH 7.4, 150 mM NaCl, 0.005% Tween-20), 25 °C; binding to GST alone subtracted; single binding site model, KD by the Scatchard equation; both purified

Row | binding [1] | binding [2] | Substance
1 | binds | binds | HIS-tagged human S100A10 mutant C82Q
2 | binds | binds | HIS-tagged human S100A10 mutant C82S
